{"sequences": {"note": "By UniProt entry, the sequences of proteins in these tests, tags left out. Residues count along the entry.", "UniProt Q03135": "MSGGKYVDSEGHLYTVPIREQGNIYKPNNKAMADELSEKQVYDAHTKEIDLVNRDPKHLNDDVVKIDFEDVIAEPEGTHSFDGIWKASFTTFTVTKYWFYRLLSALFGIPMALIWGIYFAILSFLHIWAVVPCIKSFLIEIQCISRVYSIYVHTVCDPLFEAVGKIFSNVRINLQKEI", "UniProt P19793": "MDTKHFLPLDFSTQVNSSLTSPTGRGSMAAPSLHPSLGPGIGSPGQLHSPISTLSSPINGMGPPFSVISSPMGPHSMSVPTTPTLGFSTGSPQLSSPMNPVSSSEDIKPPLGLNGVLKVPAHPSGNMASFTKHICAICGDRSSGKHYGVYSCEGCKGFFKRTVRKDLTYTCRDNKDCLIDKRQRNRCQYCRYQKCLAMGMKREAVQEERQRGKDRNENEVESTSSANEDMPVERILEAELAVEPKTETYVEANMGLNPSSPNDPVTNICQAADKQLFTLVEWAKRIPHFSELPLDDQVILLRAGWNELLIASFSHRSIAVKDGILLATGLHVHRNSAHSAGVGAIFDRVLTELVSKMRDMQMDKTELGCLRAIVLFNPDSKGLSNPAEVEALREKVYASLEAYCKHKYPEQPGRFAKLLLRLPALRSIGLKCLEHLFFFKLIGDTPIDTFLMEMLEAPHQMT", "UniProt P24593, residues 21-272": "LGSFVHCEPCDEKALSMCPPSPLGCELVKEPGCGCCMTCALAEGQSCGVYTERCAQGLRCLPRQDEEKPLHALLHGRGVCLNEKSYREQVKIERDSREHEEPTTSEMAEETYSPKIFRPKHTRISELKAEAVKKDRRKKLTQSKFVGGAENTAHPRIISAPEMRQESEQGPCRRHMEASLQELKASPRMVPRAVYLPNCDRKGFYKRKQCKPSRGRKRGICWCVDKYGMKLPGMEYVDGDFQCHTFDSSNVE"}, "source": "paper PMC10863175", "key": {"[1]": {"molecular_target": "CAVEOLIN-1 (human (endogenous in MSCs)) (UniProt Q03135)", "assay": "proximity ligation; Duolink PLA on MSCs grown on cover slides and incubated with His-tag-IGFBP5; primary antibodies anti-His-Tag with anti-CAV1 (5 min after incubation) or anti-RARα (10 min after incubation); fluorescence microscopy; only the binder purified"}, "[2]": {"molecular_target": "RXRα (retinoid X receptor alpha), endogenous (human (endogenous in MSCs)) (UniProt P19793)", "assay": "co-IP; MSCs incubated with His-tag-IGFBP5; lysed in 0.1% Triton buffer; 20 μg lysate with 2 μg anti-IGFBP5 (text: anti-His-tag), anti-RXRα or anti-RARα antibody for 12 h at 4°C; protein A/G magnetic beads; western blot"}, "[3]": {"molecular_target": "His-tag-IGFBP5 recombinant protein (human) (UniProt P24593)", "assay": "co-IP; MSCs incubated with His-tag-IGFBP5; lysed in 0.1% Triton buffer; 20 μg lysate with 2 μg anti-IGFBP5 (text: anti-His-tag), anti-RXRα or anti-RARα antibody for 12 h at 4°C; protein A/G magnetic beads; western blot"}}, "note": "No constants are given. Whether binding was seen depends on the method and setting. In cells and extracts the contact can be indirect. Some results given as binding are weak or reduced against the parent protein; the word gives no strength."}
{"substance": "His-tag-IGFBP5 recombinant protein (from UniProt P24593 21-272)", "values": [{"measurement": "binding", "setting": "[1]", "value": "binds"}, {"measurement": "binding", "setting": "[2]", "value": "binds"}]}
{"substance": "RXRα (retinoid X receptor alpha), endogenous (from UniProt P19793 1-462)", "values": [{"measurement": "binding", "setting": "[3]", "value": "binds"}]}
